Measurements: patent publication US20230414771A1 (YAFEI SHANGHAI BIOLOGY MEDICINE SCIENCE & TECHNOLOGY CO., …, priority 2020, published 2023)
The star is where a group is joined. Doxorubicin(3'-N) = COc1cccc2c1C(=O)c1c(O)c3c(c(O)c1C2=O)C[C@@](O)(C(=O)CO)C[C@@H]3O[C@H]1C[C@H](N*)[C@H](O)[C@H](C)O1; Propanoyl(3-maleimido) = O=C1C=CC(=O)N1CCC(=O)*; PEG6 = NCCOCCOCCOCCOCCOCCOCCC(=O)O

Assay: general procedure: solution-phase peptide synthesis; HBTU/DIPEA; DEPBT/DIPEA

Substance | step yield (coupling step, total yield of the first two steps) [%] | conjugation yield (conjugation step) [%]
Cbz-AAN (trt)-L-Otbu | 37.8 | –
{Propanoyl(3-maleimido)-PEG6}-AANL-{Doxorubicin(3'-N)} (SMILES COc1cccc2c1C(=O)c1c(O)c3c(c(O)c1C2=O)C[C@@](O)(C(=O)CO)C[C@@H]3O[C@H]1C[C@H](NC(=O)[C@H](CC(C)C)NC(=O)[C@H](CC(N)=O)NC(=O)[C@H](C)NC(=O)[C@H](C)NC(=O)CCOCCOCCOCCOCCOCCOCCNC(=O)CCN2C(=O)C=CC2=O)[C@H](O)[C@H](C)O1) | – | 34.2
